According to patent US11311524B2, “Pharmaceutical composition used for treatment of HTLV-1-associated myelopathy” (DAIICHI SANKYO COMPANY, LIMITED, priority 2017, dated 2022):
Some entries share one result that the patent states for a list of compounds.

Test system: HAM patient-derived PBMC
Test: Autoproliferation (3H-thymidine incorporation) of HAM patient-derived PBMC without stimulation
Format: cell-based, human
Details: average of 8 HAM patient cases, Friedman test
Method: PBMC taken from 8 HAM patients were suspended in culture mediums (RPMI1640 culture medium (wako) containing 10% FBS (GIBCO)), seeded in a 96-well round-bottom plate in a ratio of 1×10^5 cells per well (3 wells were used for each concentration), and compound A or compound B was added so as to provide a final concentration of 1, 10, 100 or 1000 nM. Culture was carried out at 37° C. in 5% CO2 conditions for 6 days. The DMSO treatment group and the PSL (1 μg/mL) treatment group were used as controls. Day 6 after initiation of culture, 1 μCi ^3H-thymidine was added to each well and culture was carried out at 37° C., in 5% CO2 conditions for 16 hours. Thereafter, the cultured cells were allowed to adsorb to a glass filter (Printed Filtermat A, PerkinElmer) by a cell harvester (Tomtec MH3, PerkinElmer), dried and impregnated with solid scintillator Meltilex-A (PerkinElmer). The amount of the ^3H-thymidine incorporated in the cells was measured by use of MicroBeta (WALLAC MicroBeta TriLux 1450-021) (Yamano et al., PLoS One. 2009, 4(8): e6517). Based on the average count of ^3H-thymidine in the DMSO treatment group of HAM patients' PBMC as 100%, the relative values of the groups treated with compound A, compound B and PSL (1 μg/mL) were obtained by calculation, and then, an average value of 8 HAM patient cases was obtained. […]

## Cc1cc(C)c(CNC(=O)c2cc(Br)c3c(c2C)O[C@@](C)([C@H]2CC[C@H](N(C)C)CC2)O3)c(=O)[nH]1 [compound A, (2R)-7-bromo-2-[trans-4-(dimethylamino)cyclohexyl]-N-[(4,6-dimethyl-2-oxo-1,2-dihydropyridin-3-yl)methyl]-2,4-dimethyl-1,3-benzodioxole-5-carboxamide]
  Concentration giving statistically significant suppression of autoproliferation: ≥ 100 nM

## Cc1cc(C)c(CNC(=O)c2cc(Cl)c3c(c2C)O[C@@](C)([C@H]2CC[C@H](N(C)C)CC2)O3)c(=O)[nH]1 [compound B, (2R)-7-chloro-2-[trans-4-(dimethylamino)cyclohexyl]-N-[(4,6-dimethyl-2-oxo-1,2-dihydropyridin-3-yl)methyl]-2,4-dimethyl-1,3-benzodioxole-5-carboxamide]
  Concentration giving statistically significant suppression of autoproliferation: ≥ 100 nM
